# From publication PMC11633308
# Sequences of proteins named here, by UniProt entry; tags and fusion partners are left off.
# UniProt Q86US8: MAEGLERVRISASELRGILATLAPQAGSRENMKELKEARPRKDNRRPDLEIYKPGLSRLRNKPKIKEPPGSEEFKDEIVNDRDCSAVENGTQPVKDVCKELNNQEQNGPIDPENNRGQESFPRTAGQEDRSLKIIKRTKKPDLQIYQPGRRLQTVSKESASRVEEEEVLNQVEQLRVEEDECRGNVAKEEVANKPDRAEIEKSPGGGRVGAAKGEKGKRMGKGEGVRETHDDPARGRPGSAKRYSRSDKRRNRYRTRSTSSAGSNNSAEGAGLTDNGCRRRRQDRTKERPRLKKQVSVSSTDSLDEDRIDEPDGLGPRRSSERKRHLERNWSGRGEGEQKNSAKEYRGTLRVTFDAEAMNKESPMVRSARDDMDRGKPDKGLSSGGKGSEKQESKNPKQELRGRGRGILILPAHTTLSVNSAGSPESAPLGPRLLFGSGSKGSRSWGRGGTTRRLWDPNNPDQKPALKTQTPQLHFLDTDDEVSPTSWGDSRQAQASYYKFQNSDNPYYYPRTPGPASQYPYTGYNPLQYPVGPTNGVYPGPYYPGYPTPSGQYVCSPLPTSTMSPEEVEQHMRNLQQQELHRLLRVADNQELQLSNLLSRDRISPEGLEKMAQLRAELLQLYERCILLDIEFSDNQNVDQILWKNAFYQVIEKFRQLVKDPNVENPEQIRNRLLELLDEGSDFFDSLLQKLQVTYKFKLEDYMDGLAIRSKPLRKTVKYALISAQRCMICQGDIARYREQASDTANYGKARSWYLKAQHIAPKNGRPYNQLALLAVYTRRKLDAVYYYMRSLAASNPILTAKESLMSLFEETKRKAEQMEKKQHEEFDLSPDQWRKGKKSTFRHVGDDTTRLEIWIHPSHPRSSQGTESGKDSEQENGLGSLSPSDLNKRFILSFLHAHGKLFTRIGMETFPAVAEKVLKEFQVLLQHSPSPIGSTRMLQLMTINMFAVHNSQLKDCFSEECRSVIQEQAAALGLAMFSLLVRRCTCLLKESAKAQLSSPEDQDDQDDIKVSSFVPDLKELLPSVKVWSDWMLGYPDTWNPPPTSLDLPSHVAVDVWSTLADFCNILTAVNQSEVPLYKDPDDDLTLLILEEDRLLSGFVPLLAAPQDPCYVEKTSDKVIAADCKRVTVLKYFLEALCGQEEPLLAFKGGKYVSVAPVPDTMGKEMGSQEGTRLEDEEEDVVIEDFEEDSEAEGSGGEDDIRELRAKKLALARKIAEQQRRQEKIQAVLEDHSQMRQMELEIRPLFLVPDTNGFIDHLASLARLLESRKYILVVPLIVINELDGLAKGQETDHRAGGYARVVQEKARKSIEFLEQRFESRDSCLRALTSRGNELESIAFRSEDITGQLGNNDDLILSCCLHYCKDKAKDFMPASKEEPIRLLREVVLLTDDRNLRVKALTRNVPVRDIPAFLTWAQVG
# UniProt Q96GD4: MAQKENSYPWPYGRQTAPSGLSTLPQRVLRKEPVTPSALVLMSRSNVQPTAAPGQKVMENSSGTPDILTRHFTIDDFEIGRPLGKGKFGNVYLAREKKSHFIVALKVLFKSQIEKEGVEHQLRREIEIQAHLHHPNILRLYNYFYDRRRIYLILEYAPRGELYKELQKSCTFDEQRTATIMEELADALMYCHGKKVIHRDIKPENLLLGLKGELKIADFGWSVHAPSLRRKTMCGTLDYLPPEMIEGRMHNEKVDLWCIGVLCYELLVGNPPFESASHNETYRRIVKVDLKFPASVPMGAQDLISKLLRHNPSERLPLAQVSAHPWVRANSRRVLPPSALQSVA
# UniProt Q14676: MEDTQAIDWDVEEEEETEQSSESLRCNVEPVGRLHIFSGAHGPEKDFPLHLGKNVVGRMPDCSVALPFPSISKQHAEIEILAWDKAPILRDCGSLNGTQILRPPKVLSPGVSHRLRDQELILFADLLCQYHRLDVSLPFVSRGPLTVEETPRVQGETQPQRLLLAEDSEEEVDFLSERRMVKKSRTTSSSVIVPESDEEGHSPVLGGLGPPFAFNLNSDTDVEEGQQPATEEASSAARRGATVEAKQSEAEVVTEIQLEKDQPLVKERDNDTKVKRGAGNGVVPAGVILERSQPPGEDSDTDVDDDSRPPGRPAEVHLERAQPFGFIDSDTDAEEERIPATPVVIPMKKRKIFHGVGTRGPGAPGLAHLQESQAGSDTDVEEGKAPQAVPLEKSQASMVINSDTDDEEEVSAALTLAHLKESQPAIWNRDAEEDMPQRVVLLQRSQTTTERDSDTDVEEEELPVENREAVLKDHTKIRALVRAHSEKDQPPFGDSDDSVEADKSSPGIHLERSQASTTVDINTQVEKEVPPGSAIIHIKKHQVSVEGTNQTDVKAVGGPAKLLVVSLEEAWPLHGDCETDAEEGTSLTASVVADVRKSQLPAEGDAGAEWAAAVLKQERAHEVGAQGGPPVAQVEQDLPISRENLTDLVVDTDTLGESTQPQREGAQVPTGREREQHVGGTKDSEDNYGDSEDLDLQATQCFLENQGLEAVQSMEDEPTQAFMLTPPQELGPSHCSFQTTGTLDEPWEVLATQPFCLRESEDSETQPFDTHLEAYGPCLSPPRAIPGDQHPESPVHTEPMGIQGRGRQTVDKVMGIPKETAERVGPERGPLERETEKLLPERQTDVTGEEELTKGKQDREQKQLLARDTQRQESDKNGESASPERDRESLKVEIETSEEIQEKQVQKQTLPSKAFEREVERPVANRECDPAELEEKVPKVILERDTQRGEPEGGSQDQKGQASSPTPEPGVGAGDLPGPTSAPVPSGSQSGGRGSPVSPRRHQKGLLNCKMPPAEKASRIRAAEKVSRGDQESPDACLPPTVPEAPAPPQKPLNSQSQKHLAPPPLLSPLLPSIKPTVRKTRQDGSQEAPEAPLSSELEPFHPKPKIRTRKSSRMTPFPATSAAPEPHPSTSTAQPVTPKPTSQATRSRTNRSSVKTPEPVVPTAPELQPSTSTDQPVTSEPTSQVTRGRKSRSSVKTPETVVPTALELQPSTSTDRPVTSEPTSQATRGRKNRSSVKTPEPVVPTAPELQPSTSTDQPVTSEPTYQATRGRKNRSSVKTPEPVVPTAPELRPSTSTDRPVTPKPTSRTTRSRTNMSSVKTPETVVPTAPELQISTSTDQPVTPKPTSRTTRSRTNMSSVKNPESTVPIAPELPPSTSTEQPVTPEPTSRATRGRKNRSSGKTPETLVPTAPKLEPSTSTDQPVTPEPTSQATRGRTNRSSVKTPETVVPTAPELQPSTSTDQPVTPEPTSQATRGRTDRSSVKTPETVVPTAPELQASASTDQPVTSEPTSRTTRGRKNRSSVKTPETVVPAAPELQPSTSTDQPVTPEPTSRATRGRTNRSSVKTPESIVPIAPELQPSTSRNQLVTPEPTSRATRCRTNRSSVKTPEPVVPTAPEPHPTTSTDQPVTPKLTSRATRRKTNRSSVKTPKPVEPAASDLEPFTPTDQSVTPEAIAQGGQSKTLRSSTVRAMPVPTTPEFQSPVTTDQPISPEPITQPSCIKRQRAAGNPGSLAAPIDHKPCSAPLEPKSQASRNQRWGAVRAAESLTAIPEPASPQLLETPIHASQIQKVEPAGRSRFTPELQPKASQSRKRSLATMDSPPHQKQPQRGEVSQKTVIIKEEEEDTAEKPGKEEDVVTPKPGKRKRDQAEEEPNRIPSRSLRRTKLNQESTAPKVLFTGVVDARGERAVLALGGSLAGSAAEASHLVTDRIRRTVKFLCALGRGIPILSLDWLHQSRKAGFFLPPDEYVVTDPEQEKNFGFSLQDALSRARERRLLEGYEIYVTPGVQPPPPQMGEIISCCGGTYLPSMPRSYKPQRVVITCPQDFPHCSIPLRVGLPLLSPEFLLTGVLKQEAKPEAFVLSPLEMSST
# These are yes or no findings as the source states them, for the method shown. In cells and extracts the contact can be indirect. Here binding means that the protein was enriched with, or labelled near, the bait; the list need not be complete. Sequences can lack the tags named with a protein.
# Experiments:
# [1] = biological target: T1, ZNF277, V5-tagged (human) (UniProt Q9NRM2); assay: affinity purification with mass spectrometry; anti-V5 antibody and magnetic beads, overnight at 4 C, on lysates of HEK293T cells transfected with V5-tagged ZFP (n=3); untransfected cells as control; lysis buffer 150 mM NaCl, 50 mM Tris pH 7.5, 1% IGEPAL CA-630, 5% glycerol; on-bead trypsin digest, LC-MS/MS, LFQ; hits: log2FC over control IP > 1 and p < 0.05
# T1 sequence: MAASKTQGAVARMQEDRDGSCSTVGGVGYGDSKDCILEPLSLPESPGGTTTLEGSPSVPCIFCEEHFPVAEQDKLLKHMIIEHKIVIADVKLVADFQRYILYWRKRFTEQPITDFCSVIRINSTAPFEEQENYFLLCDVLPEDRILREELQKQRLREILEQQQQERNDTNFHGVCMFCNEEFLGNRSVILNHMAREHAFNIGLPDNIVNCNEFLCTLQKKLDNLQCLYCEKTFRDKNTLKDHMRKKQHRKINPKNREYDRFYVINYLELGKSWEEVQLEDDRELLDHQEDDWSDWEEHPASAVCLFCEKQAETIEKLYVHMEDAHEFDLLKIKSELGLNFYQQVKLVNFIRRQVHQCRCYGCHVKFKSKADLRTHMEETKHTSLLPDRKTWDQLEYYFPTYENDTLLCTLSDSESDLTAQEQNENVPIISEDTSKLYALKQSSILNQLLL
# [2] = biological target: T2, ZNF473, V5-tagged (human) (UniProt Q8WTR7); assay: as above
# T2 sequence: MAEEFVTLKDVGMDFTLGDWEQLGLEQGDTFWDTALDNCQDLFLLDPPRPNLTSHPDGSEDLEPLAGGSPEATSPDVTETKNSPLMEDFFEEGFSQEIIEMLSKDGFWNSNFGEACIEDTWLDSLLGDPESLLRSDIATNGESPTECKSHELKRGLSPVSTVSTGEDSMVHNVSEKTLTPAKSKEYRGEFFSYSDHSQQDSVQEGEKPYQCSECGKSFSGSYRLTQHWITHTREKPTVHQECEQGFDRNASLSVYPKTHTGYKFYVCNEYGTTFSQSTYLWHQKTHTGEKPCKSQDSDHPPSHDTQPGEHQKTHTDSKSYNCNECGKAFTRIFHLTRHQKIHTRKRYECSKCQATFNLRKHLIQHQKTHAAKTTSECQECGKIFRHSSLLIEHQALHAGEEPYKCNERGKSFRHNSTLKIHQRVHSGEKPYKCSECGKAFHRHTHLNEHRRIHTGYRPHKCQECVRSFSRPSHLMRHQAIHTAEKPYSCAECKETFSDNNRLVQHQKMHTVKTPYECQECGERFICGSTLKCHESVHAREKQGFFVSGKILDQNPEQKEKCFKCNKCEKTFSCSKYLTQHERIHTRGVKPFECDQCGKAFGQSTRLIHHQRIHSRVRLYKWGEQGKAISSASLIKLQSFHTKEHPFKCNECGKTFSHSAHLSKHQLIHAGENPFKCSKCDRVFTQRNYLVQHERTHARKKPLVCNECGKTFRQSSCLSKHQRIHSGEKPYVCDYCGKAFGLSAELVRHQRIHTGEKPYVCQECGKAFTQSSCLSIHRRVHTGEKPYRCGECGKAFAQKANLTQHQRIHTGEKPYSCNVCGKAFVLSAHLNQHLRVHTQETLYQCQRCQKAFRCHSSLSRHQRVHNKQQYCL
binding [1],binding [2],Substance
binds,,SMG6 (from UniProt Q86US8 1-1419)
,binds,aurora B kinase (AURKB) (from UniProt Q96GD4 1-344)
,binds,mediator of DNA damage checkpoint protein 1 (MDC1) (from UniProt Q14676 1-2089)
